Laboratory results reported in patent US8815811B2, “Peptides and methods for their preparation and use” (Eli Lilly and Company, priority 2010, dated 2014).
Not every detail of the peptide structures is certain; ends, links or a residue may be inferred. Where no end group is shown, it is not given here. [ ]: non-standard residue; d: D form. 1Nal = N[C@@H](Cc1cccc2ccccc12)C(=O)O; Aib = CC(C)(N)C(=O)O

The chains behind the UniProt entries cited, without tags or fusion partners. Residues count along the entry.
UniProt P47871, 26-477: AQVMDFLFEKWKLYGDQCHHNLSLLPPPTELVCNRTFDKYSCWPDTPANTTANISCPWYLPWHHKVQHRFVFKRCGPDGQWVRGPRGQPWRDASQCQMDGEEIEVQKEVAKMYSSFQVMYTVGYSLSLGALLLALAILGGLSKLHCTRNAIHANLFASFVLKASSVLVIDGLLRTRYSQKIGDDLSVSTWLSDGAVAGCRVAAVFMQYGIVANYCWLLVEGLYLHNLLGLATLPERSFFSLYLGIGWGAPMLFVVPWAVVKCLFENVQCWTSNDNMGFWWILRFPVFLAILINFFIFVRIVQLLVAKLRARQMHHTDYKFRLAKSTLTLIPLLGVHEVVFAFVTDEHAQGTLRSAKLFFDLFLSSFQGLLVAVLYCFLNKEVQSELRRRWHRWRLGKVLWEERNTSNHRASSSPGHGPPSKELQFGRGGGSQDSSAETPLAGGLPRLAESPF

Columns and labels:
hGIP-R [1] = molecular target: T1, hGIP-R (Homo sapiens, UniProt P48546); assay: Glucose-dependent insulinotropic peptide receptor (GIP-R) binding assay (SPA, [125I]GIP); conditions: hGIP-R CHO-S membranes
T1 construct: expressed in transfected cells; host or cells: CHO-S (Chinese Hamster Ovary), Geneticin-selected
T1 sequence (P48546 22-466): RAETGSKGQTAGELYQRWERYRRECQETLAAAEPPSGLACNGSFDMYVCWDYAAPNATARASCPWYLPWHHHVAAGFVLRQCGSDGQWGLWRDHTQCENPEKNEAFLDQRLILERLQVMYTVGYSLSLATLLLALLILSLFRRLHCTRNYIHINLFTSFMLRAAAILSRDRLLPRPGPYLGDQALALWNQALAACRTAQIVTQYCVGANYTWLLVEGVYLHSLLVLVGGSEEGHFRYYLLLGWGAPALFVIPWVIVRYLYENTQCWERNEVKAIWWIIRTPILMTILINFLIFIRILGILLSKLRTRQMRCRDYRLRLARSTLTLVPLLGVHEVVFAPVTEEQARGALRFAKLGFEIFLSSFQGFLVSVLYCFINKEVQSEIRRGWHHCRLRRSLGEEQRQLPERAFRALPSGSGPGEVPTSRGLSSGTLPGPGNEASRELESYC

hGlucR = molecular target: T2, hGlucR (Homo sapiens, UniProt P47871); assay: Glucagon receptor (hGlucR) binding assay (SPA, I-125 glucagon); conditions: hGlucR 293HEK membranes
T2 construct: expressed in transfected cells; host or cells: 293HEK, Hygromycin-selected, phD expression plasmid
Description: The hGlucR cDNA is subcloned into the expression plasmid phD (Trans-activated expression of fully gamma-carboxylated recombinant human protein C, an antithrombotic factor. Grinnell, B. W., et. al., Bio/Technology 5: 1189-1192 (1987)). This plasmid DNA is transfected into 293HEK cells and selected with 200 μg/mL Hygromycin.
Crude plasma membranes are prepared using cells from suspension culture. The cells are lysed on ice in hypotonic buffer containing 25 mM Tris HCl, pH 7.5, 1 mM MgCl2, DNAse1, 20 μ/mL, and Roche Complete™ Inhibitors without EDTA. The cell suspension is homogenized with a glass dounce homogenizer using a Teflon® pestle for 25 strokes. The homogenate is centrifuged at 4° C. at 1800×g for 15 minutes. The supernatant is collected and the pellet is resuspended in hypotonic buffer and rehomogenized. The mixture is centrifuged at 1800×g for 15 minutes. The second supernatant is combined with the first supernatant. […]
The binding buffer contains 25 mM 4-(2-hydroxyethyl)-1-piperazineethanesulfonic acid (HEPES), pH 7.4, 2.5 mM CaCl2, 1 mM MgCl2, 0.1% fatty acid free BSA, 0.003% Tween20, and Roche Complete™ Inhibitors without EDTA. […] Plates are read with a PerkinElmer Life and Analytical Sciences Trilux MicroBeta® scintillation counter after 12 hours of settling time at room temperature.
Results are calculated as a percent of specific I-125-glucagon binding in the presence of compound. […]

hGIP-R [2] = molecular target: T1, hGIP-R; assay: Functional activation of hGIP-R cells to generate intracellular cAMP; type: cell-based; conditions: relative EC50, cAMP, hGIP-R-CHO-S cells

Substance | Ki (hGIP-R [1]) [nM] | Ki (hGlucR) [nM] | EC50 (hGIP-R [2]) [nM]
Y[Aib]EGTFTSDYSI[Aib]LDKIAQRAFVQWLIA[Aib]KGKKQEWKHQITQ-NH2 (C-terminus assumed) [Example 2] | 0.023 | > 23600 | 0.023
Y[Aib]EGTFTSDYSI[Aib]LDKIAQRA[1Nal]VQWLIA[Aib]KGKKQEWKHQITQ-NH2 (C-terminus assumed) [Example 1] |  | > 23600 | 
